Results on 30 compounds are retold here after the supplement of paper PMC4604168 (melanoma cell lines).

The list shows a part of the results. Many values rest on one well or one pass, so single values are uncertain.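 The apoptosis fraction was the count of cleaved-PARP antibody-stained nuclei relative to all DNA-stained nuclei, imaged in 1,536-well plates. Screening doses were set so most cells survived, and baseline and induced cleaved-PARP levels vary greatly across cell lines.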

The experiment has as its system IPC-298. Briefly: cleaved PARP positive nuclei fraction relative to DMSO control; melanoma cells; higher = more apoptosis. As to conditions: library dose: low library concentration; 72 h.
With `N#Cc1c(O)c2c(-c3ccc(-c4ccccc4O)cc3)csc2[nH]c1=O` + COc1cc2ncnc(Nc3ccc(Oc4ccccc4)cc3)c2cc1OC [SrcI1] (first compound 2 µM, partner dose 2 µM), the “cleaved PARP positive nuclei fraction” value came out at 60%.
The value for `CN(NC(=O)CC(=O)NN(C)C(=S)c1ccccc1)C(=S)c1ccccc1` + CC(C)CCN1c2nc(Nc3cc(F)c(O)c(F)c3)ncc2N(C)C(=O)C1C [BID1870] (first compound 0.006 µM, partner dose 0.2 µM) was 77.4%; that for `CCc1ccc(CCOc2ccc(CC3SC(=O)NC3=O)cc2)nc1` (stereo not given) [pioglitazone] + N#Cc1c(O)c2c(-c3ccc(-c4ccccc4O)cc3)csc2[nH]c1=O [A769662] (first compound 2 µM, partner dose 2 µM) was 40%; that for `Oc1nc(-c2ccc(C(F)(F)F)cc2)nc2c1CSCC2` + CCCCCCCCCCCC1=C(O)C(=O)C=C(O)C1=O [Embelin] (first compound 2 µM, partner dose 1.2 µM) was 75.7%.
As for `CCN(CC)CCCCNc1ncc2cc(-c3cc(OC)cc(OC)c3)c(NC(=O)NC(C)(C)C)nc2n1` + Cn1cc(/C=C2\C(=O)Nc3cccnc32)c2ccccc21 [GW441756] (first compound 0.1 µM, partner dose 0.4 µM), the figure is 55.6%.
As for `CCc1ccc(CCOc2ccc(CC3SC(=O)NC3=O)cc2)nc1` (stereo not given) [pioglitazone] + Cn1cc(/C=C2\C(=O)Nc3cccnc32)c2ccccc21 [GW441756] (first compound 2 µM, partner dose 0.4 µM), the figure is 25%; as for `COc1ccc(COc2ccc(Cc3cnc(N)nc3N)cc2OC)cc1` + COc1cc2ncnc(Nc3ccc(Oc4ccccc4)cc3)c2cc1OC [SrcI1] (first compound 1 µM, partner dose 2 µM), 115%; as for `O=S(=O)(c1ccccc1)N(CC(F)(F)F)c1ccc(C(O)(C(F)(F)F)C(F)(F)F)cc1` + COc1cc2ncnc(Nc3ccc(Oc4ccccc4)cc3)c2cc1OC [SrcI1] (first compound 1.4 µM, partner dose 2 µM), 87.6%.
On to `COc1ccc2c(c1)CCC1C2CCC2(C)C(NCCCCCCN3C(=O)C=CC3=O)CCC12` (stereo not given) + Cn1cc(/C=C2\C(=O)Nc3cccnc32)c2ccccc21 [GW441756] (first compound 0.4 µM, partner dose 0.4 µM), for which the “cleaved PARP positive nuclei fraction” value was 54.2%.
As for `CN(NC(=O)CC(=O)NN(C)C(=S)c1ccccc1)C(=S)c1ccccc1` + Cc1cc([N+](=O)[O-])ccc1NS(=O)(=O)c1cc(Cl)ccc1Cl [FH535] (first compound 0.006 µM, partner dose 1 µM), the figure is 50.7%; as for `N#Cc1c(O)c2c(-c3ccc(-c4ccccc4O)cc3)csc2[nH]c1=O` + c1cc(-c2cnn3cc(-c4ccc(OCCN5CCCCC5)cc4)cnc23)ccn1 [Dorsomorphin] (first compound 2 µM, partner dose 0.4 µM), 106%.
As for `CCc1ccc(CCOc2ccc(CC3SC(=O)NC3=O)cc2)nc1` (stereo not given) [pioglitazone] + COc1ccc(COc2ccc(Cc3cnc(N)nc3N)cc2OC)cc1 [GW2580] (first compound 2 µM, partner dose 1 µM), the figure is 80.7%.
The value for `COc1cc2c(Oc3ccc4[nH]c(C)cc4c3F)ncnc2cc1OCCCN1CCCC1` [cediranib] + CCc1ccc(CCOc2ccc(CC3SC(=O)NC3=O)cc2)nc1 [pioglitazone] (first compound 0.4 µM, partner dose 2 µM) was 64.3%; that for `COc1ccc(-c2ccc3c(N4CCOCC4)nc(N4C[C@@H](C)O[C@@H](C)C4)nc3n2)cc1CO` + COc1cc2ncnc(Nc3ccc(Oc4ccccc4)cc3)c2cc1OC [SrcI1] (first compound 0.02 µM, partner dose 2 µM) was 90.5%; that for `O=C(O)c1ccc(-c2c[nH]c3ncc(-c4ccccc4)cc23)cc1C1CCCC1` + O=S(=O)(c1ccccc1)N(CC(F)(F)F)c1ccc(C(O)(C(F)(F)F)C(F)(F)F)cc1 [T0901317] (first compound 0.16 µM, partner dose 1.4 µM) was 132%.
As for `COc1ccc(-c2ccc3c(N4CCOCC4)nc(N4C[C@@H](C)O[C@@H](C)C4)nc3n2)cc1CO` + CCN(CC)CCCCNc1ncc2cc(-c3cc(OC)cc(OC)c3)c(NC(=O)NC(C)(C)C)nc2n1 [PD173074] (first compound 0.02 µM, partner dose 0.1 µM), the “cleaved PARP positive nuclei fraction” value came out at 183%.
With `Oc1cc(-c2nc(-c3ccccc3)[nH]c2-c2ccncc2)ccc1Cl` + O=C1NC(=O)/C(=C/c2ccc(-c3ccc(F)cc3O)o2)S1 [AS252424] (first compound 0.2 µM, partner dose 1 µM), the “cleaved PARP positive nuclei fraction” value is 86.9%.
The value for `CCc1ccc(CCOc2ccc(CC3SC(=O)NC3=O)cc2)nc1` (stereo not given) [pioglitazone] + O=C(Nc1ccccc1)c1cc([N+](=O)[O-])ccc1Cl [GW9662] (first compound 2 µM, partner dose 2 µM) was 109%; that for `COc1ccc2c(c1)CCC1C2CCC2(C)C(NCCCCCCN3C(=O)C=CC3=O)CCC12` (stereo not given) + O=C(O)C(=O)Nc1sc2c(c1C(=O)O)CCNC2 [TCS401] (first compound 0.4 µM, partner dose 1.66667 µM) was 42.6%; that for `CN(C)S(=O)(=O)c1ccc2c(c1)/C(=C/c1cc3c([nH]1)CCCC3)C(=O)N2` + COc1cc(N2CCC(N3CCN(C)CC3)CC2)ccc1Nc1ncc(Cl)c(Nc2ccccc2S(=O)(=O)C(C)C)n1 [NVP-TAE684] (first compound 0.4 µM, partner dose 0.08 µM) was 89.2%.
As for `CN(C)S(=O)(=O)c1ccc2c(c1)/C(=C/c1cc3c([nH]1)CCCC3)C(=O)N2` + N#Cc1c(O)c2c(-c3ccc(-c4ccccc4O)cc3)csc2[nH]c1=O [A769662] (first compound 0.4 µM, partner dose 2 µM), the figure is 81.3%; as for `COc1ccc2c(c1)CCC1C2CCC2(C)C(NCCCCCCN3C(=O)C=CC3=O)CCC12` (stereo not given) + CC(C)CCN1c2nc(Nc3cc(F)c(O)c(F)c3)ncc2N(C)C(=O)C1C [BID1870] (first compound 0.4 µM, partner dose 0.2 µM), 263%.
The value for `CCc1ccc(CCOc2ccc(CC3SC(=O)NC3=O)cc2)nc1` (stereo not given) [pioglitazone] + Oc1cc(-c2nc(-c3ccccc3)[nH]c2-c2ccncc2)ccc1Cl [L779450] (first compound 2 µM, partner dose 0.2 µM) was 55%; that for `CCc1ccc(CCOc2ccc(CC3SC(=O)NC3=O)cc2)nc1` (stereo not given) [pioglitazone] + CC(C)CCN1c2nc(Nc3cc(F)c(O)c(F)c3)ncc2N(C)C(=O)C1C [BID1870] (first compound 2 µM, partner dose 0.2 µM) was 174%; that for `CN(NC(=O)CC(=O)NN(C)C(=S)c1ccccc1)C(=S)c1ccccc1` + O=c1cc(-c2cccc3c2Sc2ccccc2S3)oc(N2CCOCC2)c1 [KU55933] (first compound 0.006 µM, partner dose 1 µM) was 341%.
As to `O=C(O)c1ccc(-c2c[nH]c3ncc(-c4ccccc4)cc23)cc1C1CCCC1` + Oc1nc(-c2ccc(C(F)(F)F)cc2)nc2c1CSCC2 [XAV939] (first compound 0.16 µM, partner dose 2 µM), the “cleaved PARP positive nuclei fraction” value was found to be 58.4%.
On to `COc1ccc(COc2ccc(Cc3cnc(N)nc3N)cc2OC)cc1` + COc1cc(N2CCC(N3CCN(C)CC3)CC2)ccc1Nc1ncc(Cl)c(Nc2ccccc2S(=O)(=O)C(C)C)n1 [NVP-TAE684] (first compound 1 µM, partner dose 0.08 µM), for which the “cleaved PARP positive nuclei fraction” value turned out to be 173%.
As for `COc1ccc2c(c1)CCC1C2CCC2(C)C(NCCCCCCN3C(=O)C=CC3=O)CCC12` (stereo not given) + c1cc(-c2cnn3cc(-c4ccc(OCCN5CCCCC5)cc4)cnc23)ccn1 [Dorsomorphin] (first compound 0.4 µM, partner dose 0.4 µM), the figure is 88.2%; as for `NCC(=O)Nc1ccc(-n2nc(C(F)(F)F)cc2-c2ccc3c(ccc4ccccc43)c2)cc1` + COc1ccc(COc2ccc(Cc3cnc(N)nc3N)cc2OC)cc1 [GW2580] (first compound 1 µM, partner dose 1 µM), 129%.
On to `COc1cc2ncnc(Nc3ccc(Oc4ccccc4)cc3)c2cc1OC` + COc1cc(N2CCC(N3CCN(C)CC3)CC2)ccc1Nc1ncc(Cl)c(Nc2ccccc2S(=O)(=O)C(C)C)n1 [NVP-TAE684] (first compound 2 µM, partner dose 0.08 µM), for which the “cleaved PARP positive nuclei fraction” value turned out to be 162%.
